# According to the supplement of paper PMC10849652:
# Chains of the proteins cited; added tags and fusions are not shown. Lines headed by an entry give the natural chain unless they say otherwise; changes in a name come on top.
# UniProt Q9Y241: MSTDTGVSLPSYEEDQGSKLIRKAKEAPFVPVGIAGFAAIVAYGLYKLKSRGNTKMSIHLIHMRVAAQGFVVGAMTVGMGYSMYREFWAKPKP
# UniProt P17096: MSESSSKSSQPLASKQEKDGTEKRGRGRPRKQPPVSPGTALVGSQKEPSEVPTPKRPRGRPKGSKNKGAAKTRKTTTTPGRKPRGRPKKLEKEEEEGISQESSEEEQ
# UniProt P08397: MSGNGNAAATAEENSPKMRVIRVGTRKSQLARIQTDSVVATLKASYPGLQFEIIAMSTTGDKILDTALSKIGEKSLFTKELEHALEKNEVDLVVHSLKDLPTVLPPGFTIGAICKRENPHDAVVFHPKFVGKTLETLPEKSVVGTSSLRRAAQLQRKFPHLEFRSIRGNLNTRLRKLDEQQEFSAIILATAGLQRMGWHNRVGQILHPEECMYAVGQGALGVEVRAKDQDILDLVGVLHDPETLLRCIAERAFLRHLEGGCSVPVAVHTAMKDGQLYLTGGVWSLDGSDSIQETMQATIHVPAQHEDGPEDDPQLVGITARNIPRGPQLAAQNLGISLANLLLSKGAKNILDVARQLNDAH
# UniProt Q9BYK8: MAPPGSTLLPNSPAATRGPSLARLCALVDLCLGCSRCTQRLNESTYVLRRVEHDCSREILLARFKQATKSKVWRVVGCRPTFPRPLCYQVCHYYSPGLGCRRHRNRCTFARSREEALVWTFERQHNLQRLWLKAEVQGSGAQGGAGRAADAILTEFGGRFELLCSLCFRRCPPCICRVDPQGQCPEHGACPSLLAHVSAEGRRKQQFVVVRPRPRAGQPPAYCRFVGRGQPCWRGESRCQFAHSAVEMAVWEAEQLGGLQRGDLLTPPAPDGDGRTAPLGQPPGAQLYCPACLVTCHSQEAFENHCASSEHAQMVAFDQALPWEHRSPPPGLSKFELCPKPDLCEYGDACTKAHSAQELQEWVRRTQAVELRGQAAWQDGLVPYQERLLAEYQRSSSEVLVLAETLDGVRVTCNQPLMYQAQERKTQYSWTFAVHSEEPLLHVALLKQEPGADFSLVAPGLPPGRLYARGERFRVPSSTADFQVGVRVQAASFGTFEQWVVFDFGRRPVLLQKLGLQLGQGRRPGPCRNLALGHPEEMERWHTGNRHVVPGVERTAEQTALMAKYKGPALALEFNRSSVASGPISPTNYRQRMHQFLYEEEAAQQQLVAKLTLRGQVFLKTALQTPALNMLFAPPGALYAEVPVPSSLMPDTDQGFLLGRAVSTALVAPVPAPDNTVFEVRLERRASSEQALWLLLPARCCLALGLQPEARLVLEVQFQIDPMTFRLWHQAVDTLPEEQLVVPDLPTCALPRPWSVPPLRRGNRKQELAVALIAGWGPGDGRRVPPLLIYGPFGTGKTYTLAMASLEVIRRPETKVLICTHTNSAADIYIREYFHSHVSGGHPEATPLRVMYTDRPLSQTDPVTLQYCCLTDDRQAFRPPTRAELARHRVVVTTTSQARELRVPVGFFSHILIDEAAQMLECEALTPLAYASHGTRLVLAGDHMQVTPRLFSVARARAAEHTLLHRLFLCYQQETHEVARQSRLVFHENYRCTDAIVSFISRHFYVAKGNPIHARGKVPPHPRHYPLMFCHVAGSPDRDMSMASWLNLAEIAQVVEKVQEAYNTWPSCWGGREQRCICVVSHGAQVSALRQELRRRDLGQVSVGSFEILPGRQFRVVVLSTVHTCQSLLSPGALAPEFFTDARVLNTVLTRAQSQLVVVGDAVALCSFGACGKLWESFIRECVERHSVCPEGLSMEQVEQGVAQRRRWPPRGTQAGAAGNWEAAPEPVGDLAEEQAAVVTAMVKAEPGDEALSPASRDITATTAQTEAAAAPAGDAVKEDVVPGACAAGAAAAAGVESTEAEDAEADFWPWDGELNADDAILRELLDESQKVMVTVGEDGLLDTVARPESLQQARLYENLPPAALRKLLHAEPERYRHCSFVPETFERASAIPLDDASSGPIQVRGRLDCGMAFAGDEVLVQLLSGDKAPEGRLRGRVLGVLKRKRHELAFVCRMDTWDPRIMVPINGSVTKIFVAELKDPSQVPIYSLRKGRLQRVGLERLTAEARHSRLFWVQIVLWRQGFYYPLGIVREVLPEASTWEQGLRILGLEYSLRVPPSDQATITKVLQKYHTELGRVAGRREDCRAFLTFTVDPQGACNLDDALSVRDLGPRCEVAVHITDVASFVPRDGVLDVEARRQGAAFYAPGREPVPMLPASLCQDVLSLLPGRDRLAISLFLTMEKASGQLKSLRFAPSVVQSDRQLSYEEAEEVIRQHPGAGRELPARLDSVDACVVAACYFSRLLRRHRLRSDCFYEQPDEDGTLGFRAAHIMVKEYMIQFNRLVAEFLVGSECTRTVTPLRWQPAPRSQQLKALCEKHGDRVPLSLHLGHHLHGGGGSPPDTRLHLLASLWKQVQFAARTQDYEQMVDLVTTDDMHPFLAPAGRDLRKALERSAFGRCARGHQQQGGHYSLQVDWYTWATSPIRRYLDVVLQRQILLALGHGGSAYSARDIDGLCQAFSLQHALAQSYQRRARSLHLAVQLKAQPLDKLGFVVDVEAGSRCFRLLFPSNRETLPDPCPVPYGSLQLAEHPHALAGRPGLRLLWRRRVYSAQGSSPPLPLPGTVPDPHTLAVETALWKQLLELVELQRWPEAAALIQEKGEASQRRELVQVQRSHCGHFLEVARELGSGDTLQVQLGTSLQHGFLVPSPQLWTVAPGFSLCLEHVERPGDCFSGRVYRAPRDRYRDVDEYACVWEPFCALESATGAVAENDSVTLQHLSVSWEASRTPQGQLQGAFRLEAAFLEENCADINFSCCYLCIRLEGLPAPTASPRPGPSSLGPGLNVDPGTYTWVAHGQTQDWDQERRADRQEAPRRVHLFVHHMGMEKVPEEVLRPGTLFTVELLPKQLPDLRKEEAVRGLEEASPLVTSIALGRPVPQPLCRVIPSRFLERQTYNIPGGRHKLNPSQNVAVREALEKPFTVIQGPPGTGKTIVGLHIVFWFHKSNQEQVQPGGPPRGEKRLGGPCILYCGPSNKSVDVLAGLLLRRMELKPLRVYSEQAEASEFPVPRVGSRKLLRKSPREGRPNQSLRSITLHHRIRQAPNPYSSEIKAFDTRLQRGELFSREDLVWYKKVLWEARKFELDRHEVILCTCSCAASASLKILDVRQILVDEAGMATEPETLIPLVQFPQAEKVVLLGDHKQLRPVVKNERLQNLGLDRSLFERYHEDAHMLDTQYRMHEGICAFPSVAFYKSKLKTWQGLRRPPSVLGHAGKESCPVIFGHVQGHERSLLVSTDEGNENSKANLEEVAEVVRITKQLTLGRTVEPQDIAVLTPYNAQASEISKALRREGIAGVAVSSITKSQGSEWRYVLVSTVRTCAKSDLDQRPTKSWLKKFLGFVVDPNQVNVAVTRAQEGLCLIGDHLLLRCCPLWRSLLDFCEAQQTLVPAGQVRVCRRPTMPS
# UniProt Q14469: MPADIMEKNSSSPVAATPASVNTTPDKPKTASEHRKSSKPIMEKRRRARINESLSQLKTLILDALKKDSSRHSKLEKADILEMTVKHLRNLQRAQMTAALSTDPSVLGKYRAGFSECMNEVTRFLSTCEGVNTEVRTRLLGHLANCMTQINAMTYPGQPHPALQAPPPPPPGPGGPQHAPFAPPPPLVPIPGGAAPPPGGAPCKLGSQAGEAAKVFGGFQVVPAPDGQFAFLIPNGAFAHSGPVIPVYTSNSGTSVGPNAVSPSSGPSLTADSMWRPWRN
# UniProt Q969F9: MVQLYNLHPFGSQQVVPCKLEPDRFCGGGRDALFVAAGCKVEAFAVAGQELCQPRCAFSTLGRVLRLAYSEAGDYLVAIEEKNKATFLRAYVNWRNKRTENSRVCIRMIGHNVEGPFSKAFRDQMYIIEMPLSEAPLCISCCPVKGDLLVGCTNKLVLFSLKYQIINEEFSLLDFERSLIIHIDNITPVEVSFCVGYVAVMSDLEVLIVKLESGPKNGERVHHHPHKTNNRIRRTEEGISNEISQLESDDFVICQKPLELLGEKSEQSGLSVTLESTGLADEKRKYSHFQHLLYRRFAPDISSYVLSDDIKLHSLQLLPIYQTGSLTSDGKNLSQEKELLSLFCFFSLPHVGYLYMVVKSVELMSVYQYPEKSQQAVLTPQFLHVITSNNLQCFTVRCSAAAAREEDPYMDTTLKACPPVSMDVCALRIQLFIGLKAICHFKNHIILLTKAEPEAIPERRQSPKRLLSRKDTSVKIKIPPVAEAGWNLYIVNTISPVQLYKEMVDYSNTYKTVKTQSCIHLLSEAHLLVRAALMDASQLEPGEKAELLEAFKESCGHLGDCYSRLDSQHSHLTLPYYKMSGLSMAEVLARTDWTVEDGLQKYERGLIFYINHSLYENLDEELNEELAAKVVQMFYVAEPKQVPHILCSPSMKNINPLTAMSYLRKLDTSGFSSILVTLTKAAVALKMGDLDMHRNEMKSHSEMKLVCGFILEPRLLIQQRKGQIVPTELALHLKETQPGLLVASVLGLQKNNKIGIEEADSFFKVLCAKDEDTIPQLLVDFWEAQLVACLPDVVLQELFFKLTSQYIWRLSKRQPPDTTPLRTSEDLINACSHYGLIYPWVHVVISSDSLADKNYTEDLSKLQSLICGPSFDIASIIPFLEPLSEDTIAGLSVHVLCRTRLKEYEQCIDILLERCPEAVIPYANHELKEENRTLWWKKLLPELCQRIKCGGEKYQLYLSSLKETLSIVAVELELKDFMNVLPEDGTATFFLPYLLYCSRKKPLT
# UniProt Q99714: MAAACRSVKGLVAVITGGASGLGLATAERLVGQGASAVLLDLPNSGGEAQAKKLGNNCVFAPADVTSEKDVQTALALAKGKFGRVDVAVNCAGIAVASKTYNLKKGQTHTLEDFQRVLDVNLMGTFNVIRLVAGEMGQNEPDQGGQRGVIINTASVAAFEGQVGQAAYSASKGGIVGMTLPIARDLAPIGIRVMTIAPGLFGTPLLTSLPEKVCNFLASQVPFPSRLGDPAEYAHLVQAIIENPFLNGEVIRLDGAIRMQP
# UniProt Q9BUJ2: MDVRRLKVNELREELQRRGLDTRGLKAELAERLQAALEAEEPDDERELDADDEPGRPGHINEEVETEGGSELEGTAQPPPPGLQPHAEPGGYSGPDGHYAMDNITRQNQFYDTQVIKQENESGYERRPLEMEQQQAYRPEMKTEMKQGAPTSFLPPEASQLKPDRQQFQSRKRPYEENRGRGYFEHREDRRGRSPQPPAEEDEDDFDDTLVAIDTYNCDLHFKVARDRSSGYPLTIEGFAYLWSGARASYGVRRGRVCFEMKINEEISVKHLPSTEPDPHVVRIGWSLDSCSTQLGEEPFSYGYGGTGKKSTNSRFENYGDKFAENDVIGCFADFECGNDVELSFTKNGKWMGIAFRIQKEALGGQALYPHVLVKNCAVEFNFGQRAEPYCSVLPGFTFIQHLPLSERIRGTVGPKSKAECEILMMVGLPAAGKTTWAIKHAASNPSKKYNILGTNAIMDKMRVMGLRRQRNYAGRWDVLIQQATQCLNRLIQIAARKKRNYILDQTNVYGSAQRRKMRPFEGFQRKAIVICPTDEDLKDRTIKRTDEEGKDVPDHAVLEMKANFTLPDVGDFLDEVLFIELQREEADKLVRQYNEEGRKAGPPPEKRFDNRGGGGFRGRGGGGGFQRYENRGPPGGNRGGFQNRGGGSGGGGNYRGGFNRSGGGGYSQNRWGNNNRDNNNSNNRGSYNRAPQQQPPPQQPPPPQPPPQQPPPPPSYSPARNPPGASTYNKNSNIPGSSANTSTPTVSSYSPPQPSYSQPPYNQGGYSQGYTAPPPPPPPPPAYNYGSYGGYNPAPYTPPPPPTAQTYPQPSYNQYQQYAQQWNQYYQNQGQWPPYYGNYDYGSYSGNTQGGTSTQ
# UniProt P00738: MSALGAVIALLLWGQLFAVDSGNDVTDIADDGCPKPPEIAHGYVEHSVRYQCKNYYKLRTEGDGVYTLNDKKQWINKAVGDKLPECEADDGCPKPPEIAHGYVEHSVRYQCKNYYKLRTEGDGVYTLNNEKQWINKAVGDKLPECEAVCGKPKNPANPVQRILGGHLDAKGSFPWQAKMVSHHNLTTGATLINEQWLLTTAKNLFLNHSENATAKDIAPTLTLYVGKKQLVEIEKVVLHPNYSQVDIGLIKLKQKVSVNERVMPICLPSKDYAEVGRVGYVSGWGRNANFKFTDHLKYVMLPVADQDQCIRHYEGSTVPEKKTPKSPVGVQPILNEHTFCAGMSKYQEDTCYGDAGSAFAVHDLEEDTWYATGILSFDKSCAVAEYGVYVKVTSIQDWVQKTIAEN
# UniProt Q15651: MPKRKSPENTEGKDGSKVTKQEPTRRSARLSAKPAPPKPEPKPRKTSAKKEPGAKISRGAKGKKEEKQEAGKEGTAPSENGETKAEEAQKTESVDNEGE
# UniProt O15347: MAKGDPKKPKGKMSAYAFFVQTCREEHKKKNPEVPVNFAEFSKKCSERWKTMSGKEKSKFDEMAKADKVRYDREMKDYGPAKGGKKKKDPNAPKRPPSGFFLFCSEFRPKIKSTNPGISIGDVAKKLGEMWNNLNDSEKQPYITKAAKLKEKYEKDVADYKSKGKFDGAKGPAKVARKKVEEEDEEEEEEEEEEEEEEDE
# This is one part of the list.
# Columns and labels:
# Test in all cases: log2 fold change, soluble protein after heating vs DMSO (PISA); higher = thermal stabilisation; K562 lysate, 10 uM; active = over 0.2 and 3.5 SD of the protein, either way, in both replicates (recomputed)
# [1] = compound: Cc1sc2c(c1C)C(c1ccc(Cl)cc1)=N[C@@H](CC(=O)OC(C)(C)C)c1nnc(C)n1-2
# Procedure, shortened: (§1)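 Pellets of K562 cells were dounce-homogenised in PBS pH 7.4 with 1 mM MgCl2, and the crude extract was held at 1 mg/mL protein for a 30 min treatment with 10 μM compound. Aliquots were heated for 3 min over 48°C-58°C and pooled before NP-40 was added to 0.5% at 4°C. The supernatant from 21,000xg for 90 min was quantified by TMTpro 16plex LC-MS/MS with channel sums equalised. Values are reported from duplicates as log-two fold change in thermal stability relative to solvent controls.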
# [2] = compound: C1=CC=C(C=C1)[C@H](COC2=CC3=C(C=C2)NC(=O)N3)NC(=O)C4=CC=CN(C4=O)CC5=CC(=C(C=C5)F)F
# Procedure, shortened: as §1
# [3] = compound: CC1=C(SC2=C1C(=N[C@H](C3=NN=C(N32)C)CC(=O)N)C4=CC=C(C=C4)Cl)C
# Procedure, shortened: as §1
# [4] = compound: CC1=C2C(=CC=C1)N=C(N(C2=O)C3=CC=CC=C3C)CN4C=NC5=C(N=CN=C54)N
# Procedure, shortened: as §1
# [5] = compound: c1ccc([C@@H]2C[C@H]2NC2CCNCC2)cc1
# Procedure, shortened: as §1
Target,log2 fold change [1],log2 fold change [2],log2 fold change [3],log2 fold change [4],log2 fold change [5]
HNRNPC isoform 2 (UniProt P07910),inactive: 0.054,–,–,–,–
HSP90AB3P (UniProt Q58FF7),inactive: 0.055,inactive: -0.009,inactive: 0.063,inactive: 0.006,inactive: 0.008
HGFAC (UniProt Q04756),–,–,–,–,inactive: -0.158
HMGXB4 (UniProt Q9UGU5),–,–,–,inactive: -0.01,–
HNRNPU isoform 2 (UniProt Q00839),inactive: -0.004,–,–,–,–
HOOK1 (UniProt Q9UJC3),inactive: -0.158,–,–,–,inactive: -0.211
HIGD1A isoform 2 (UniProt Q9Y241),inactive: -0.005,–,–,–,inactive: 0.049
HMGA1 isoform 2 (UniProt P17096),inactive: 0.055,–,–,–,inactive: 0.419
HELLS (UniProt Q9NRZ9),inactive: 0.009,–,–,–,–
HMBS (UniProt P08397),inactive: 0.029,inactive: 0.011,inactive: 0.018,inactive: -0.033,inactive: 0.031
HELZ2 (UniProt Q9BYK8),–,–,–,inactive: -0.117,–
HOOK2 (UniProt Q96ED9),inactive: -0.005,inactive: -0.261,inactive: 0.28,–,inactive: 0.16
HEXD isoform 2 (UniProt Q8WVB3),–,inactive: -0.067,inactive: -0.165,inactive: 0.065,inactive: -0.05
HPGD (UniProt P15428),inactive: -0.216,–,–,–,inactive: 0.232
HES1 (UniProt Q14469),inactive: 0.108,–,–,–,inactive: -0.097
HIRA (UniProt P54198),inactive: 0.081,–,–,inactive: 0.17,inactive: -0.039
HIP1R (UniProt O75146),inactive: -0.011,inactive: -0.039,inactive: 0.008,inactive: 0,inactive: 0.033
HERPUD1 (UniProt Q15011),–,inactive: -0.015,inactive: 0.066,inactive: 0.009,inactive: -0.022
HPS3 (UniProt Q969F9),inactive: 0.057,–,–,inactive: -0.048,inactive: 0.105
HSD17B10 (UniProt Q99714),inactive: 0.022,inactive: -0.006,inactive: 0.062,inactive: 0.03,inactive: 0.003

# Record cards (already shown). Values in the order: log2 fold change [1]	log2 fold change [2]	log2 fold change [3]	log2 fold change [4]	log2 fold change [5]
# HERPUD1 (UniProt Q15011) is listed as –	inactive: -0.015	inactive: 0.066	inactive: 0.009	inactive: -0.022
# HES1 (UniProt Q14469) is listed as inactive: 0.108	–	–	–	inactive: -0.097

# Further entries follow:

Target,log2 fold change [1],log2 fold change [2],log2 fold change [3],log2 fold change [4],log2 fold change [5]
HOMER3 (UniProt Q9NSC5),–,inactive: 0.072,inactive: -0.276,–,inactive: 0
HNRNPM (UniProt M0R019),–,–,–,inactive: -0.116,–
HSD17B4 (UniProt P51659),inactive: 0.026,inactive: -0.021,inactive: -0.002,inactive: 0.001,inactive: 0.007
HEXIM2 (UniProt Q96MH2),inactive: 0.05,–,–,–,–
HNMT (UniProt P50135),inactive: -0.101,inactive: -0.018,inactive: 0.074,–,inactive: -0.118
HSF2 (UniProt Q03933),inactive: -0.064,–,–,inactive: -0.034,inactive: -0.056
HMCN1 (UniProt Q96RW7),–,inactive: -0.013,inactive: -0.002,inactive: -0.105,inactive: 0.146
HGF (UniProt P14210),–,–,–,–,inactive: 0.085
HNRNPUL1 (UniProt Q9BUJ2),inactive: -0.003,inactive: 0.043,inactive: -0.022,inactive: -0.028,inactive: -0.006
HP (UniProt P00738),inactive: -0.16,–,–,–,inactive: -0.069
HERC3 (UniProt Q15034),inactive: 0.01,–,–,–,–
HPRT1 (UniProt P00492),inactive: 0.011,inactive: 0.03,inactive: -0.006,inactive: -0.009,inactive: 0.048
HRAS (UniProt P01112),inactive: 0.19,–,–,–,–
HECW2 (UniProt Q9P2P5),inactive: -0.093,–,–,inactive: -0.048,–
HK1 isoform 2 (UniProt P19367),inactive: 0.016,inactive: -0.017,inactive: 0.017,inactive: -0.002,inactive: 0.016
HPS6 (UniProt Q86YV9),inactive: -0.116,–,–,–,inactive: 0.122
HMGN3 (UniProt Q15651),inactive: -0.005,inactive: 0.064,inactive: -0.059,–,inactive: -0.086
HMGB3 (UniProt O15347),inactive: 0.078,inactive: 0.053,inactive: 0.026,inactive: -0.052,inactive: 0.004
HNRNPUL1 (UniProt M0R247),–,inactive: 0.059,inactive: -0.014,–,inactive: -0.044
